Out of some 31,000 sequences screened, about 1,400 (4.5%) were called active.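 The calls were made as follows: active = median seed-adjusted z-score above 1 or below -1; inactive = the rest.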 This is one part of the list.
experiment: Novel Modifiers of Survival Motor Neuron (SMN) Protein: Gene Identification via Genome-wide siRNA Screen; settings: HEK293T SMN2-luciferase reporter, siRNA knockdown, 72 h; actives lie on both sides;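 also: luminescence tracks full-length SMN protein made from the SMN2 reporter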
How it was run: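 Steps: spot 1 pmol siRNA, add Lipofectamine RNAiMax in serum-free DMEM, seed HEK293T SMN2–luciferase reporter cells; incubate 72 h at 37 °C; add ONE-Glo; normalize luminescence to control siRNA, log10, MAD. Candidates: |MAD| > 1.0.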

Row | Sequence | median seed-adjusted z-score
1 | CAGCAAUUCAUAAGCAUUATT against GMPR | inactive: 0.0757
2 | CCAGAGUCCUGUUCGAUUUTT against USP30 | inactive: -0.646
3 | GAGCGGCGGUACAAAUGUATT against ZNF646 | inactive: 0
4 | CCACUGGAGAAAACGUGUATT against TIAM2 | inactive: -0.0239
5 | GCCGAGUUGUAUUUGAUGATT against CA3 | inactive: -0.276
6 | GAUUGAAGAGUUAGCAAUATT against RUFY2 | inactive: 0
7 | UGACCAAUGAGACUCUCAATT against PAQR5 | inactive: -0.0985
8 | ACAUGAAGCUGGAAUGUAATT against WNT7A | inactive: 0.0931
9 | GGGUCCAACAUUCCGAAUATT against CHD1 | active: -1.03
10 | CCCUUACUACAACUACAAATT against ZBTB38 | inactive: 0.448
11 | GAGUCUAUCUUGAUAAUCUTT against PPWD1 | inactive: -0.341
12 | CGAGGACACAGAUAAAGAATT against CD7 | inactive: 0.249
13 | GAAGUGUUAUGUAAGGAGATT against EPHX2 | inactive: 0
14 | GGAGACUUGAAUUACCUUATT against STAT5B | inactive: 0
15 | GCAUCAGUGCGGAAAGCAATT against SRGAP3 | inactive: -0.0961
16 | CAUCUCUACUAAGCGAAAATT against PTRF | inactive: -0.0151
17 | CGGAGUUCAGUUUCACUGATT against COCH | inactive: -0.524
18 | CCUGGAUUGUUGUAAGUAATT against ZNF780B | inactive: -0.332
19 | AUAUAUCACCUGUUUGUUATT against ATM | inactive: 0.22
20 | GGAGAUAUGAUGAUACUAATT against MMP13 | inactive: 0.265
21 | GAGAGUCCGUUGAAAAGUATT against BCLAF1 | inactive: -0.823
22 | GAACUUCGUCUGUUUAACATT against USP12 | inactive: 0.121

4 entries from above, as a markdown table:

| Row | Sequence | median seed-adjusted z-score |
| --- | --- | --- |
| 3 | GAGCGGCGGUACAAAUGUATT against ZNF646 | inactive: 0 |
| 4 | CCACUGGAGAAAACGUGUATT against TIAM2 | inactive: -0.0239 |
| 5 | GCCGAGUUGUAUUUGAUGATT against CA3 | inactive: -0.276 |
| 6 | GAUUGAAGAGUUAGCAAUATT against RUFY2 | inactive: 0 |

Additional results follow.

Row | Sequence | median seed-adjusted z-score
23 | GGAUGCAAUUUCUUAAGGATT against RNF14 | inactive: 0.296
24 | GCAUCGGUUUGGUCCUAUATT against NDUFA9 | inactive: -0.325
25 | GGACGCAGAGAACAGCAUGTT against SCT | inactive: -0.454
26 | CUGUGAUUGAUGAAAUAGATT against SPATA5L1 | inactive: 0.252
27 | CCGGGACAUUGACACAGCATT against ATP5G1 | inactive: -0.311
28 | GACCCGCUGUUAGACAUCATT against CNTN3 | inactive: 0.732
29 | GAGAAGUUCCUGACAAAGATT against METTL7B | inactive: 0.223
30 | CCACGUGUCUAACACCAAUTT against KRT79 | inactive: 0.338
31 | CCAUGUUAGAAGCCCGGAATT against ZNF385D | inactive: -0.338
32 | CGCCCGAUUUUGGAACUAATT against ELMO1 | inactive: -0.00404
33 | GAUCAUCUAUGACCGGAAATT against EIF4EBP1 | inactive: -0.161
34 | GCAUCAUGAUUACGGGAAATT against SPO11 | inactive: 0.475
35 | CAUUCUGUGGUGAAACAUUTT against SCLY | inactive: 0.00396
36 | GGGUCAUUCUAUGGGCAAATT against OGFOD2 | inactive: 0.493
37 | CAAAGGGAAGCAAAAACAATT against HMGA1 | inactive: 0.557
38 | GUUUACCUCUGGAUACACUTT against SNRPD1 | active: -2.97
39 | GCUUUAAUGCAGAUGUGCATT against COX11 | inactive: -0.317
40 | AGUGCUCAGCAUUACGUAATT against EIF5A | inactive: 0.00397
41 | GGAUUUACCUUGUUCUAUATT against MTF2 | inactive: 0
42 | GGUGCUACGUGUACCAUAATT against RRH | inactive: -0.0112
43 | CAAGUAUAUCAUUCGAAUATT against CLCA1 | inactive: 0.015
44 | CUCUAGAACCCAAUCCAAUTT against GIPC3 | inactive: -0.27

Row | Sequence | median seed-adjusted z-score
45 | GGCCUGCUGCAUGUACAUATT against PVRL4 | inactive: -0.266
46 | CAGUCAUUCGGCUCAAAAATT against ADA | inactive: -0.242
47 | AAACACCCAUGAACAUCAATT against WWTR1 | inactive: -0.579
48 | GGAGGAUGCCUGAAUUCUATT against ASS1 | inactive: 0.0886
49 | GCCGGAUGGUUAAGAAGAUTT against STK40 | inactive: -0.555
50 | CGCUACUUCUUGGACAAGATT against BCKDK | inactive: 0
51 | CGAAAGCUUCUGAAUCAUUTT against FKBP5 | inactive: -0.598
52 | CCCUGUAUCUUGAUGAACATT against UNC13C | inactive: -0.136
53 | GAGUCAAAUAUGGAACGAATT against BUB1 | inactive: 0.566
54 | CGCUGUUCAAUGAACUAUATT against GBA2 | inactive: 0.143
55 | CCUGUAACCUGUGCCUACATT against DPEP2 | inactive: 0
56 | GCUCCACACUAAAUCCGCATT against PRKCA | inactive: -0.249
57 | CGAGGUGACUGGUACAAGATT against NDUFV1 | inactive: -0.653
58 | AAGCGGUUGUUUUAGAGCATT against UBR5 | inactive: 0.114
59 | GGCCUACUCAGGAAUUCAATT against CUGBP2 | inactive: -0.532
60 | UGUCCUGAGUAAGACCAAATT against GSS | inactive: 0.122
61 | CCACUAAAGGAUCAACGUATT against PHKB | inactive: -0.142
62 | AAGACAUACCGACCUCUUATT against PPIL3 | inactive: 0.282
63 | CACGAACUCUUGAAUGGAATT against THPO | inactive: -0.0366
64 | UCCUGAAUCUGGACUCUAATT against ST3GAL3 | inactive: -0.133
65 | GCAUUAUGCGAGUCAACAATT against PSMB4 | inactive: -0.16
66 | CAAACGAGAUCCUAACCAATT against MAP3K9 | inactive: -0.498

Row | Sequence | median seed-adjusted z-score
67 | AGACUAGUUUAUGAGAUAATT against AOC3 | inactive: -0.474
68 | GGAAAUCCAUGUCCGUGUATT against ATP2A3 | inactive: -0.28
69 | CGGAAGUUAUCGUUCCGAUTT against FAT1 | inactive: -0.00397
70 | GCUGCUUUCUGGCUCGAAATT against NEU4 | inactive: -0.152
71 | GACGCGGUAUGUAGACAUATT against NAT8B | inactive: 0.206
72 | CUCCUGUUUUGGUCCCGAATT against SV2A | inactive: 0.138
73 | GCUCAAAUCUUAUUGACCATT against ZNF383 | inactive: -0.196
74 | AGGUAGAAGAAAUGCAAUATT against PKIA | inactive: 0.533
75 | GCAGGAUGCUGAAAUUGCATT against S100A6 | inactive: -0.264
76 | CUGUAUCUGUGGACCUGAATT against SNX5 | inactive: -0.141
77 | CAGUCAGACAUAUUACCUATT against ZNF765 | inactive: 0.541
78 | CUGUCAAUCUAGUACUAUATT against PIGF | inactive: -0.239
79 | GGAGUGACCGGAAACAUCATT against PRKCD | inactive: -0.236
80 | GGUACUAGCUGUAAGCGGATT against SIX5 | inactive: 0
81 | CCUAUUAAACAGUACAGAUTT against MC4R | inactive: 0.154
82 | CCCGCUACAUUUACGUUGUTT against ACER1 | inactive: 0.308
83 | CCGUGGAGAUGAUACAGGATT against DDX25 | inactive: 0
84 | GGGUCUCCUGAGUUAGGUATT against ELF2 | inactive: -0.514
85 | GCGAGAGGCUAUCACUGCATT against BLOC1S1 | inactive: 0.0692
86 | GCCUUCUAGAUUUACCCGATT against NKX2-8 | inactive: 0.104
87 | UGGUAUAUCCAGUAUGUGATT against MLXIPL | inactive: 0
88 | CGUUAACCAUUGACAGGUATT against GPR139 | inactive: 0.0111

From entry 69 as far as 70, as listed above:
Row | Sequence | median seed-adjusted z-score
69 | CGGAAGUUAUCGUUCCGAUTT against FAT1 | inactive: -0.00397
70 | GCUGCUUUCUGGCUCGAAATT against NEU4 | inactive: -0.152

Following part.

Row | Sequence | median seed-adjusted z-score
89 | GCCUCAAAGUCUUGAAGAATT against TTC9 | inactive: -0.173
90 | GGAUUUGGGCUGUAUGGAUTT against BTBD2 | inactive: 0.0303
91 | GGUAUAAACGCGUCCAGCATT against MAFB | inactive: 0.674
92 | AGGGCUCCUUUGUCACAAATT against MCAT | inactive: 0
93 | GCGGGACUAUGUGAUCGAATT against MCM2 | inactive: 0
94 | CCAUUAUGAUCGUAAGGCATT against GCNT4 | inactive: -0.0629
95 | GGAGCACAGAAUACCGGAATT against C3orf64 | inactive: 0.0771
96 | GAGUAUAUCUCUGAAAGAATT against SAR1B | inactive: 0.693
97 | UCACUUCUAGUUUUACUUUTT against NDUFA7 | inactive: 0.356
98 | GCAAGGUAACAAAUCGGAATT against POLR3K | inactive: 0.504
99 | ACCGUAUUCCUAUAUCUCATT against FOXA3 | inactive: 0.128
100 | GAAUCACUCUUUACGCAGUTT against CCKBR | inactive: 0.314
101 | ACAUGAGGAUCACAAAUGATT against ST14 | inactive: -0.534
102 | GCUCUGUGCUCUCUAGUGATT against LEFTY1 | inactive: 0.383
103 | GCACCUAUAUUGUAAUAGATT against PTPRG | inactive: 0.0697
104 | CCUUAUACAUAAAAUCCUUTT against CD1E | inactive: -0.133
105 | CGCAGUAUGUGGACUAUGATT against NID2 | inactive: 0.283
106 | ACUGGAUUUUUAUACUAGATT against GLO1 | inactive: -0.0827
107 | CGGACAACAUGUACCGGAATT against MYO1F | inactive: 0.103
108 | GGUAGAUAUUUCUAGUACATT against BIRC6 | inactive: 0.0785
